In patent USRE38416E1, “Cross-linking oligonucleotides” (Epoch Biosciences, Inc., priority 1988, dated 2004):

Test system: pHPV-16
Assay: Filter hybridization of nick-translated biotinylated probe to pHPV-16 slotted onto nitrocellulose
Set-up: species or system human papillomavirus type 16
Details: streptavidin-alkaline phosphatase conjugate with BCIP/NBT substrate

Nc1ncnc2c1c(CCCCCNC(=O)CCCCCNC(=O)CCCC[C@@H]1SC[C@@H]3NC(=O)N[C@@H]31)nn2[C@H]1C[C@H](O)[C@@H](COP(=O)(O)OP(=O)(O)OP(=O)(O)O)O1 [Example 9, 1-(2-Deoxy-β-D-erythropentofuranosyl)-3-[5-(6-biotinamido)-hexanamidopentyl]pyrazolo[3,4-d]pyrimidin-4-amine 5′-triphosphate.]
filter hybridization signal compared with probe prepared using bio-11-dUTP: No significant differences
filter hybridization signal compared with probe prepared using bio-11-dUTP (listed as Bio-12-dAPPTP): identical signals
